Data reported in PMC4481513, “Structural and Functional Analysis of Human HtrA3 Protease and Its Subdomains” (PLoS ONE, 2015).
Results are given in words; binding and its absence hold for the method and conditions named. Some results given as binding are weak or reduced against the parent protein; the word gives no strength.

Target: ΔN-HtrA3_(S305A) (residues 130–453–His6), proteolytically inactive N-terminally truncated HtrA3L with protease and PDZ domains (human) (UniProt P83110)
Assay: cross-linking; Bis(sulfosuccinimidyl) suberate (BS3), then SDS-PAGE; data not shown; both purified

binding: binds
B1: ΔN-HtrA3_(S305A) (residues 130–453–His6), proteolytically inactive N-terminally truncated HtrA3L with protease and PDZ domains (domain or fragment, human, UniProt P83110 130-453, looked up)
chain: LHQLSSPRYKFNFIADVVEKIAPAVVHIELFLRHPLFGRNVPLSSGSGFIMSEAGLIITNAHVVSSNSAAPGRQQLKVQLQNGDSYEATIKDIDKKSDIATIKIHPKKKLPVLLLGHSADLRPGEFVVAIGSPFALQNTVTTGIVSTAQREGRELGLRDSDMDYIQTDAIINYGNAGGPLVNLDGEVIGINTLKVTAGISFAIPSDRITRFLTEFQDKQIKDWKKRFIGIRMRTITPSLVDELKASNPDFPEVSSGIYVQEVAPNSPSQRGGIQDGDIIVKVNGRPLVDSSELQEAVLTESPLLLEVRRGNDDLLFSIAPEVVM
notes: human HtrA3 long isoform (HtrA3L), residues 130-453: serine protease domain and PDZ domain, catalytic serine changed to alanine; Chain A of the structure runs to residue 459, that is into the His tag; also called ΔN-HtrA3-His6; pPG1; source: E. coli BL21(DE3) clpP::Cm r, purified (Ni-NTA; before crystallization also Superdex 200 gel filtration); not shown: His6, C-terminal, kept
